Test results as given in patent EP0434979B1, “Peptide derivatives useful as antagonists of bombesin and gastrin-releasing peptide” (MERRELL DOW PHARMACEUTICALS INC., priority 1989, dated 1991).
For at least one compound, name, drawing or mass did not settle the structure. Where a SMILES comes first, the peptide text is derived from it. [ ]: non-standard residue; d: D form. The star is where a group is joined. Pheψ(CH2S)LeuNH2 = CC(C)C[C@H](SC[C@H](Cc1ccccc1)N*)C(N)=O

The chains behind the UniProt entries cited, without tags or fusion partners. Where a name states a change or a piece, a line headed by the entry shows the natural chain unless it says otherwise.
UniProt P21729: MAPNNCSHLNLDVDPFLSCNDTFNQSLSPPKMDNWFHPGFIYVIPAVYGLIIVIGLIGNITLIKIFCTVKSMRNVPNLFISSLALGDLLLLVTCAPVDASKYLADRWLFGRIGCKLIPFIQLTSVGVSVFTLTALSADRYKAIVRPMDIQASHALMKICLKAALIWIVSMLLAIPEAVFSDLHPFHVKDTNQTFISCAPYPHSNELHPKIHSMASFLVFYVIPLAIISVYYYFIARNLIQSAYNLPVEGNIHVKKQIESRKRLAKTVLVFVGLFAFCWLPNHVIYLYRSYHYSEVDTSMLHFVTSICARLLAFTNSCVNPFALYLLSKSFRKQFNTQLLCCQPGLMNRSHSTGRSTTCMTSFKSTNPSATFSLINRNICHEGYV

Target: T1, bombesin/GRP receptor (Mus musculus, UniProt P21729)
T1 construct: Pancreata from mice were pooled and chopped at 350 µm with a tissue chopper; from tissue; host or cells: chopped mouse pancreas
Experiment: Competition at the receptor for iodinated GRP (binding to murine pancreatic membranes)
Parameters: species or system mice
Conditions: receptor affinity
Description: The pancreata from one or more mice were pooled, minced, and homogenized in 50 mM HEPES (pH 7.4) containing 120 mM NaCl and 5 mM KCl at 4°C and centrifuged at 37,500 X g for 15 minutes. The pellet was resuspended in 50 mM HEPES (pH 7.4) containing 10 mM EDTA and 300 mM KCl and incubated for 30 minutes at 4°C. The suspension was centrifuged as above and the pellet was washed two times in 50 mM HEPES (pH 7.4) containing protease inhibitors (10 µM phenylmethylsulfonyl fluoride, 1 µM thiorphan, 40 µg/ml bacitracin, 10mM iodoacetimide and 4 µg/ml leupeptin), and again centrifuged. The tissue was then resuspended in incubation buffer (1ml per 4 mg pancreas) and incubated for 15 minutes at room temperature, then 250 µl was added to each assay tube to commence the assay. […] The assay was allowed to proceed to equilibrium for 90 minutes at room temperature. After this time, the contents of each tube was rapidly filtered over Whatman GF/B filters presoaked in 0.1% polyethyleneimine and the filters were rapidly washed three times with ice-cold 50 mM HEPES (pH 7.4). Filter-bound radioactivity was quantitated in a gamma counter. […] Affinity and maximal binding were calculated with Ligand (Biosoft, Cambridge, UK) (Figure 1 and Figure 2).
Binding was assayed in triplicate using 0.1 […] and the indicated concentrations of peptide. The abscissa (x-axis) logarithmically indicates the concentration of agonists or antagonist of the GRP receptor.

Kd [nM]	SMILES
50	CC(C)C[C@H](SC[C@H](Cc1ccccc1)NC(=O)[C@H](Cc1c[nH]cn1)NC(=O)CNC(=O)[C@@H](NC(=O)[C@H](C)NC(=O)[C@H](Cc1c[nH]c2ccccc12)NC(=O)[C@H](CCC(N)=O)NC(=O)[C@@H](N)CC(N)=O)C(C)C)C(N)=O [N Q W A V G H FΨ[CH₂S]L#] (H-NQWAVGH-{Pheψ(CH2S)LeuNH2}; N-terminus assumed)
10	CC(=O)N[C@H](Cc1ccccc1)C(=O)N[C@@H](CCC(N)=O)C(=O)N[C@@H](Cc1c[nH]c2ccccc12)C(=O)N[C@@H](C)C(=O)N[C@H](C(=O)N[C@H](C)C(=O)N[C@@H](Cc1c[nH]cn1)C(=O)N[C@H](CS[C@@H](CC(C)C)C(N)=O)Cc1ccccc1)C(C)C [Acf Q W A V a H FΨ[CH₂S]L#, Ac-D-Phe-Gln-Trp-Ala-Val-D-Ala-His-PheΨ[CH₂S]Leu-NH₂] (Ac-[dF]QWAV[dA]H-{Pheψ(CH2S)LeuNH2})
100	CC(C)C[C@@H](C(N)=O)[S+]([O-])C[C@H](Cc1ccccc1)NC(=O)[C@H](Cc1c[nH]cn1)NC(=O)CNC(=O)[C@@H](NC(=O)[C@H](C)NC(=O)[C@H](Cc1c[nH]c2ccccc12)NC(=O)[C@H](CCC(N)=O)NC(=O)[C@@H](N)CC(N)=O)C(C)C (stereo partly drawn) [N Q W A V G H FΨ[CH₂S(O)]L#, ASn-Gln-Trp-Ala-Val-Gly-His-Phe Ψ[CH₂S(O)]Leu-NH₂]
